Data as given in PubChem BioAssay AID445 (National Center for Advancing Translational Sciences (NCATS), 2006).
The list shows a part of the results. These are further read-outs of the screen, such as a control signal, another cell line or another target. No call is given for them. Most of these compounds were active or inconclusive in the main read-out, so they are no random draw. Words in brackets tell the shape of the fitted curve; partial curves, single points and poor fits give uncertain potencies.

experiment: IkB Signaling; conditions: ABC-DLBCL IkBa-CBG/CBR dual luciferase ratio (green luciferase fused to IkBa over red control in OCI-Ly3 lymphoma cells), 4 h; measured here: control luc red channel unless noted
Outline: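 In this assay, an IκBα–CBG68 fusion accumulates when IKK-driven degradation is blocked; native CBR normalizes for cell number. OCI-Ly3 cells were treated 4 h with compound and doxycycline, then green and red light read after Chroma-Glo addition.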

Row | Compound | AC50
1 | CCOc1ccc(C(=O)Nc2nnc(S(=O)(=O)N(CC)c3ccccc3C)s2)cc1 | 15.8 µM [rising, partial curve]
2 | O=C(NCCc1ccccc1)c1ccc2c(c1)CCN2S(=O)(=O)c1ccc(Br)cc1 | 7.94 µM [falling, full curve, poor fit]
3 | COc1ccc(N2CC(c3nc(-c4cc(OC)c(OC)c(OC)c4)no3)CC2=O)cc1Cl (configuration not stated) | 12.6 µM [falling, partial curve]
4 | CCC(=O)N1CCCc2cc(S(=O)(=O)N3CCC(C(=O)Nc4ccc(F)c(F)c4)CC3)ccc21 | 1 µM [rising, full curve]
5 | COC(=O)c1ccccc1NC(=O)CSc1nc(-c2ccccc2)cc(C(F)(F)F)n1 | 39.8 µM [falling, single point]
6 | COc1ccccc1CNC(=O)CCc1c(C)nc2cc(-c3ccccc3OC)nn2c1C | 3.98 µM [falling, partial curve]
7 | Cc1ccc(NC(=O)CN2CCCN(Cc3ccccc3Cl)S2(=O)=O)c(C)c1 | 20 µM [falling, single point]
8 | c1ccc(CCc2nc(-c3ccccn3)no2)cc1 | 7.94 µM [falling, partial curve]
9 | O=C(C1CCCN(S(=O)(=O)c2cccc3nonc23)C1)N1CCN(c2cccc(Cl)c2)CC1 (configuration not stated) | 10 µM [falling, partial curve]
10 | COc1cccc(/C=C/c2nc(C#N)c(N3CCCCC3)o2)c1 | 39.8 µM [falling, single point]
11 | CSc1ccc(CCNC(=O)CCc2c(C)nc3c(-c4ccccc4)c(C)nn3c2C)cc1 | 12.6 µM [falling, partial curve]
12 | COC(=O)c1ccc2c(=O)n(CCCCCC(=O)NCc3ccccc3)c(=O)[nH]c2c1 | 0.251 µM [falling, full curve]
13 | CCn1cc(C2N3CC4(CC)CN2CC(CC)(C3)C4=O)c2ccccc21 (configuration not stated) | 25.1 µM [falling, partial curve]
14 | CCOC(=O)c1c(NC(=O)/C=C/c2ccc(OC)c(OC)c2)sc(C(C)=O)c1C | 10 µM [rising, partial curve]
15 | O=C(Cc1cccs1)Nc1nc2ccccc2s1 | 15.8 µM [falling, single point]
16 | N#CCCCSc1ncccc1-c1nc2ccccc2[nH]1 | 0.1 µM [falling, full curve]
17 | COc1ccc(NC(=O)C(=O)NCC(c2ccc3c(c2)OCO3)N2CCN(C)CC2)cc1 (configuration not stated) | 1.26 µM [falling, partial curve]
18 | CCOc1cc(CNC(=O)CCCn2c(=O)c3cccn3c3cccnc32)cc(OCC)c1OCC | 0.251 µM [rising, full curve]
19 | COc1ccc(CCNC(=O)c2cc(Nc3cc(C)cc(C)c3)nc3ccccc23)cc1OC | 12.6 µM [falling, partial curve]
20 | O=C(NCc1ccccn1)c1cc(S(=O)(=O)N2CCN(c3ccccc3)CC2)ccc1Cl | 15.8 µM [falling, partial curve]
21 | Cn1c(CSc2nc3ccccc3s2)nc2ccccc21 | 39.8 µM [falling, single point]

Part of the list above, field by field:
O=C(NCc1ccccn1)c1cc(S(=O)(=O)N2CCN(c3ccccc3)CC2)ccc1Cl
  AC50: 15.8 µM [falling, partial curve]
Cn1c(CSc2nc3ccccc3s2)nc2ccccc21
  AC50: 39.8 µM [falling, single point]

Continued.

Row | Compound | AC50
22 | COCC(C)n1c(C)cc(C(=O)COC(=O)c2c(C)nn(-c3ccccc3)c2C)c1C (configuration not stated) | 12.6 µM [falling, partial curve]
23 | Cc1ccc2c(c1)sc1nc(-c3cc4ccccc4oc3=O)cn12 | 0.158 µM [falling, full curve]
24 | CCOC(=O)c1ccccc1NC(=O)CN1C(=O)CC(c2ccco2)Sc2ccccc21 (configuration not stated) | 0.316 µM [falling, full curve]
25 | CCOC(=O)Cn1c(CN(Cc2ccccc2)Cc2ccccc2)nc2c1c(=O)n(C)c(=O)n2C | 15.8 µM [falling, partial curve]
26 | O=C(c1ccc2c(c1)N(Cc1ccc(Cl)cc1)C(=O)c1ccccc1S2=O)N1CCN(c2ccccc2F)CC1 (configuration not stated) | 20 µM [falling, partial curve]
27 | O=C(c1ccc(F)cc1)N1CCC(c2nc3ccccc3o2)CC1 | 3.16 µM [falling, single point]
28 | CC(C)NC(=O)CC(=O)Nc1ccc2nc3n(c(=O)c2c1)CCCCC3 | 0.0501 µM [falling, full curve, poor fit]
29 | CCOc1ccccc1NC(=O)C(NS(=O)(=O)c1ccc2c(c1)CCC(=O)N2)c1ccccc1 (configuration not stated) | 20 µM [falling, partial curve]
30 | O=C(NC1CCCCCC1)c1cc2c(Cl)nc3ccccc3c2s1 | 3.16 µM [rising, full curve]
31 | CC(C)(C)c1ccc(Oc2nc3ccccn3c(=O)c2/C=C(\C#N)c2nc3ccccc3[nH]2)cc1 | 25.1 µM [falling, single point]
32 | COc1ccc(CNC(=O)c2ccc3c(c2)N(C)C(=O)C2CCCCN32)cc1OC (configuration not stated) | 12.6 µM [falling, partial curve, poor fit]
33 | CCCCOc1ccc(C(=O)N2CCC(c3nc4ccccc4o3)CC2)cc1 | 15.8 µM [falling, partial curve]
34 | Cc1nn(C(=O)COc2ccccc2)c(C)c1Sc1ccccc1 | 25.1 µM [falling, single point]
35 | CCOc1ccc(CC(=O)NCCc2csc(-c3ccc(C(F)(F)F)cc3)n2)cc1 | 1.26 µM [rising, full curve, poor fit]
36 | Cc1c(C)n(C)c2ccc(C(=O)NCc3cccs3)cc12 | 39.8 µM [falling, single point]
37 | CCN(c1cccc(C)c1)S(=O)(=O)c1ccc2c(c1)NC(=O)CCS2 | 0.0316 µM [falling, full curve]
38 | Cc1c(Cl)cccc1Nc1nn2c(=O)c3ccc(C(=O)NCCc4ccccc4)cc3nc2s1 | 20 µM [falling, partial curve]
39 | O=C(c1cc(-c2ccc3c(c2)OCO3)on1)N1CCN(c2ccc(F)cc2)CC1 | 0.631 µM [falling, full curve, poor fit]
40 | O=C(NC1CC(=O)N(c2ccccc2)C1)c1ccc(Br)o1 (configuration not stated) | 5.01 µM [falling, single point]
41 | Cc1cccc(N(CC(=O)NCCSCc2ccc(Cl)cc2)S(C)(=O)=O)c1C | 20 µM [falling, partial curve]
42 | CCOc1ccc(NC(=O)c2cc3c(n(-c4ccc(OC)cc4)c2=O)CC(C)(C)CC3=O)cc1 | 12.6 µM [falling, partial curve]

Row | Compound | AC50
43 | Cc1nn(Cc2ccc(C(=O)N3c4ccc(F)cc4CCC3C)o2)c(C)c1Br (configuration not stated) | 15.8 µM [falling, partial curve]
44 | CCOC(=O)Cn1c(=O)oc2cc(S(=O)(=O)N3CCN(c4ccccc4F)CC3)ccc21 | 15.8 µM [falling, partial curve]
45 | CCOC(=O)c1ccc2c(c1)N(CC(=O)Nc1ccc(C)cc1C)C(=O)c1ccccc1S2 | 5.01 µM [falling, full curve, poor fit]
46 | CCn1cc(C(=O)NCCCN(CC(C)C)CC(C)C)c(=O)c2cc(S(=O)(=O)N(C)C3CCCCC3)ccc21 | 6.31 µM [falling, partial curve]
47 | COc1ccc(NC(=O)CCc2nnc3n(C)c(=O)c4sccc4n23)cc1Cl | 10 µM [falling, single point]
48 | O=S(=O)(c1ccccc1F)N1CCC(Oc2ccc(-n3cnnn3)cc2)CC1 | 15.8 µM [falling, partial curve]
49 | O=C1CC(N2CCN(C/C=C/c3ccccc3)CC2)C(=O)N1CCc1ccccc1 (configuration not stated) | 20 µM [falling, partial curve]
50 | Cc1ccc(-c2nc(CSCC(=O)NCCN3CCN(Cc4ccccc4)CC3)c(C)o2)cc1 | 12.6 µM [falling, partial curve]
51 | CN(CCc1ccc(Cl)c(Cl)c1)C[C@@H](O)COc1ccc(NS(C)(=O)=O)cc1 | 39.8 µM [falling, partial curve]
52 | COc1cccc(CNc2nc3c(-c4ccccc4)nnn3c3ccccc23)c1 | 3.16 µM [falling, partial curve]
53 | COc1ccc(CCNC(=O)Cn2c(=O)n(-c3cc(OC)c(OC)c(OC)c3)c(=O)c3ccccc32)cc1OC | 0.0316 µM [falling, full curve, poor fit]
54 | Cc1ccc2oc(=O)c3cnn(CC(=O)N4CCN(c5cc(Cl)ccc5C)CC4)c3c2c1 | 20 µM [falling, partial curve]
55 | CCOc1ccc(CCNCc2c(C(=O)O)n(Cc3ccc(C)cc3)c3cc(OC)ccc23)cc1 | 31.6 µM [falling, single point]
56 | CN(Cc1ccccc1)C(=O)CSc1nc2ccsc2c(=O)n1-c1ccc(F)cc1 | 3.16 µM [rising, partial curve]
57 | Cc1cccc(NC(=O)c2sc3nc(-c4ccc(F)cc4)cn3c2C)n1 | 5.01 µM [falling, full curve]
58 | CCN(CC(=O)Nc1ccc2c(c1)OCCO2)Cc1cc(=O)oc2c(C)c(C)ccc12 | 39.8 µM [falling, single point]
59 | COc1ccc(-c2csc3nc(-c4ccc(F)cc4)oc(=O)c23)cc1 | 2.51 µM [falling, full curve]
60 | COCCNC(=O)c1ccc(-n2c(-c3ccccc3)cc3c2CCCCC3)cc1 | 31.6 µM [falling, single point]
61 | COc1ccc(C2=NS(=O)(=O)N(C)C(C(=O)NCc3ccccc3)=C2)cc1OC | 1 µM [falling, partial curve]
62 | Cc1ccc(S(=O)(=O)N2CCN(C(=O)CSc3nc4ccccc4o3)C2)cc1 | 15.8 µM [falling, partial curve]

Grouped by structure: the entries above with a cyano group
Row | Compound | AC50
10 | COc1cccc(/C=C/c2nc(C#N)c(N3CCCCC3)o2)c1 | 39.8 µM [falling, single point]
16 | N#CCCCSc1ncccc1-c1nc2ccccc2[nH]1 | 0.1 µM [falling, full curve]
31 | CC(C)(C)c1ccc(Oc2nc3ccccn3c(=O)c2/C=C(\C#N)c2nc3ccccc3[nH]2)cc1 | 25.1 µM [falling, single point]
